Taken from: PubChem BioAssay AID1259286 (Sanger Institute, 2017)
The deposit covers 794 reagents; below is a part drawn at random. 17 of them (2.1%) were called active. 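Calls use knock-down alone only; synergy above 0.15 marked separately; viability seems capped at control level; exposure time not given.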 Entries without a mark were called inactive. Not given: the amount of reagent, the time to read-out.

Purpose: 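Kinome knock-downs lethal on their own or synergistic with anchor drugs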 (primary screen)
Cells: NCI-H630 human colorectal cancer cells
Knock-down reagent: siRNA pool against human genes
Treatment: anchor drugs BYL719 at 1 µM, cetuximab at 5 µg/ml or trametinib at 10 nM, or DMSO vehicle alone; exposure time not given
Detection: 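Replicate-averaged viability as a fraction of non-targeting control, knock-down-alone robust z-score, and per-drug synergy scores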
Reading the numbers: viability z-score, knock-down alone: higher = more viable cells, weaker knock-down effect; viability vs control, knock-down alone: higher = more viable cells; synergy score with trametinib: higher = stronger synergistic killing with trametinib; synergy score with BYL719: higher = stronger synergistic killing with BYL719; synergy score with cetuximab: higher = stronger synergistic killing with cetuximab
Hit rule: 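a gene is called essential when its knock-down-alone viability robust z-score is below -3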
Meaning of the calls: active = essential when knocked down alone; inactive = not essential alone

The opening 2 records as a preview:
viability z-score, knock-down alone	viability vs control, knock-down alone (fraction of control)	synergy score with trametinib	synergy score with BYL719	synergy score with cetuximab	gene knocked down
0.464	1	-0.0317	0.01	0.00372	GALK1 (galactokinase 1)
-1.47	0.927	-0.117	-0.0587	-0.065	PRKCA (protein kinase C alpha)

Results, from the first entry:
viability z-score, knock-down alone	viability vs control, knock-down alone (fraction of control)	synergy score with trametinib	synergy score with BYL719	synergy score with cetuximab	gene knocked down
0.464	1	-0.0317	0.01	0.00372	GALK1 (galactokinase 1)
-1.47	0.927	-0.117	-0.0587	-0.065	PRKCA (protein kinase C alpha)
0.464	1	-0.0333	-0.0814	0.103	MAPK7 (mitogen-activated protein kinase 7)
0.464	1	0.00773	0.00442	0.107	PTGS1 (prostaglandin-endoperoxide synthase 1)
-0.326	0.97	-0.024	-0.109	0.00812	PFKL (phosphofructokinase, liver type)
0.464	1	-0.0479	-0.0695	-0.0152	PRKG2 (protein kinase cGMP-dependent 2)
0.464	1	-0.0479	-0.0572	0.00209	MAPK11 (mitogen-activated protein kinase 11)
0.464	1	-0.0254	-0.0336	-0.0132	TEK (TEK receptor tyrosine kinase)
0.216	0.991	-0.0568	0.0607	0.0104	PRKCI (protein kinase C iota)
0.464	1	-0.0479	-0.0664	0.095	SRPK1 (SRSF protein kinase 1)
-1.2	0.937	-0.108	0.0237	0.109	NAGK (N-acetylglucosamine kinase)
-0.528	0.962	-0.00237	0.0497	0.0275	STK25 (serine/threonine kinase 25)
0.464	1	-0.0296	-0.0814	0.152	CERK (ceramide kinase)
0.464	1	-0.0322	-0.0316	-0.0672	CDKL3 (cyclin dependent kinase like 3)
0.464	1	-0.00447	0.0317	0.0904	PRKACG (protein kinase cAMP-activated catalytic subunit gamma)
0.464	1	-0.0479	-0.0445	0.03	ZAP70 (zeta chain of T cell receptor associated protein kinase 70)
-0.618	0.959	-0.0764	-0.113	0.14	ULK4 (unc-51 like kinase 4)
-0.82	0.951	-0.0182	-0.0651	0.0965	NUP98 (nucleoporin 98 and 96 precursor)
0.256	0.992	-0.0554	0.04	-0.0169	RIPK2 (receptor interacting serine/threonine kinase 2)
0.464	1	-0.0176	-0.0492	0.0322	PKMYT1 (protein kinase, membrane associated tyrosine/threonine 1)
0.464	1	-0.0479	-0.0814	0.0279	PDK2 (pyruvate dehydrogenase kinase 2)
0.464	1	-0.0373	-0.0456	0.104	BRSK1 (BR serine/threonine kinase 1)
0.464	1	-0.0148	-0.0242	0.0484	MAP3K13 (mitogen-activated protein kinase kinase kinase 13)
0.464	1	-0.0024	-0.0617	0.0294	RFK (riboflavin kinase)
0.464	1	-0.0479	-0.0804	-0.121	CHD9 (chromodomain helicase DNA binding protein 9)
0.464	1	0.102	0.149	0.13	MAP3K9 (mitogen-activated protein kinase kinase kinase 9)
0.464	1	-0.0479	0.0531	-0.0437	PAK2 (p21 (RAC1) activated kinase 2)
0.464	1	-0.0479	-0.0761	0.0456	NME3 (NME/NM23 nucleoside diphosphate kinase 3)
-0.214	0.974	-0.0723	-0.105	-0.0938	SBK1 (SH3 domain binding kinase 1)
0.464	1	-0.0479	0.00917	0.0135	INSRR (insulin receptor related receptor)
-1.26	0.935	-0.0873	-0.106	-0.00797	FGFRL1 (fibroblast growth factor receptor like 1)
0.464	1	-0.0479	-0.0814	0.104	CAMK1D (calcium/calmodulin dependent protein kinase ID)
-0.378	0.968	-0.0561	-0.0198	-0.0582	SMAD4 (SMAD family member 4)
0.464	1	0.00065	0.0506	0.0188	DAPK3 (death associated protein kinase 3)
0.464	1	-0.0479	-0.0669	-0.0595	PHKG2 (phosphorylase kinase catalytic subunit gamma 2)
0.464	1	-0.0479	0.0198	0.0382	DCLK2 (doublecortin like kinase 2)
0.464	1	0.0549	-0.0245	0.0734	EFNA3 (ephrin A3)
0.464	1	-0.0479	0.0419	0.00619	LIMK2 (LIM domain kinase 2)
0.464	1	-0.0479	-0.00462	0.0677	TAOK1 (TAO kinase 1)
0.464	1	-0.0479	-0.0814	-0.0358	NME1 (NME/NM23 nucleoside diphosphate kinase 1)
0.464	1	-0.0479	0.0199	0.108	TAOK3 (TAO kinase 3)
0.216	0.991	-0.00286	-0.09	-0.0172	PI4K2B (phosphatidylinositol 4-kinase type 2 beta)
0.464	1	-0.0133	-0.0814	-0.0792	EFNA5 (ephrin A5)
0.464	1	0.0338	0.173	0.192	CDKN2D (cyclin dependent kinase inhibitor 2D)
-2.35	0.894	-0.0462	-0.0979	-0.000201	CDKN2C (cyclin dependent kinase inhibitor 2C)
0.464	1	-0.0479	-0.00625	-0.0165	TWF2 (twinfilin actin binding protein 2)
0.464	1	-0.00767	0.084	0.147	SYK (spleen associated tyrosine kinase)
0.464	1	-0.0479	-0.0814	0.0887	CSNK1D (casein kinase 1 delta)
-0.761	0.954	-0.092	-0.107	-0.161	RPS6KB2 (ribosomal protein S6 kinase B2)
-2.28	0.896	0.0287	0.0361	-0.0232	PIK3R4 (phosphoinositide-3-kinase regulatory subunit 4)
